Data as given in PubChem BioAssay AID504791 (Drosophila RNAi Screening Center, 2011)

Purpose: 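Factors in Argonaute-based small RNA production and activity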 (primary screen)
System: Drosophila S2-derived reporter cells
Knock-down reagent: long dsRNA against Drosophila genes, about 150-250 ng dsRNA per well (siRNA assay); about 80-120 ng (miRNA assay)
Duration: about 5 days (siRNA assay); about 4 days (miRNA assay)
Challenge: copper sulfate induction of reporters: 25 µM (siRNA assay); 200 mM stated (miRNA assay), 1-2 days before reading
Read-out: 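Dual luciferase assay: Renilla to firefly signal ratio in each well, scaled to the mean ratio of its plate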
Scale: siRNA reporter hit score: higher = 3 marks a strong hit with raised ratio; -3 a strong hit with lowered ratio
Call rule: 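First-pass picks had plate-scaled ratios over 1.5 for the siRNA assay, over 1.6 for the miRNA assay, or under 0.6; two distinct dsRNAs had to score alike on retest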
The deposit covers about 23,000 reagents; this is an unselected part of those with a known target gene and a result. Of all reagents, 199 (0.86%) are marked active. 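Plate-scaled ratios behind the calls are not deposited; printed light signals are raw; many rows marked increased or decreased are still called inactive.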 Names joined by + are all predicted targets of the reagent.

| Target gene | DRSC id | siRNA reporter hit score | stable siRNA reporter change | miRNA reporter change | stable assay Renilla, run 1 (luminescence) | stable assay firefly, run 1 (luminescence) | call |
| --- | --- | --- | --- | --- | --- | --- | --- |
| Cpr49Aa (GeneID 246413) | DRSC07197 | – | – | – | 6599 | 3.50e5 | inactive |
| CG15107 (GeneID 59128) | DRSC06534 | – | – | – | 7220 | 3.16e5 | inactive |
| Ets65A (GeneID 38700) | DRSC09968 | – | – | – | 6171 | 4.02e5 | inactive |
| Ets65A (GeneID 38700) | DRSC10738 | – | – | – | 7686 | 4.49e5 | inactive |
| Ets65A (GeneID 38700) | DRSC11164 | – | – | – | 7759 | 6.44e5 | inactive |
| Esyt2 (GeneID 42929) | DRSC16082 | – | – | – | 9106 | 3.71e5 | inactive |
| Ntan1 (GeneID 37147) | DRSC07546 | – | – | – | 7123 | 4.09e5 | inactive |
| CG15628 (GeneID 33681) | DRSC00256 | 3 | – | – | 4200 | 2.18e5 | inactive |
| CG15628 (GeneID 33681) | DRSC00463 | – | – | – | 8303 | 4.69e5 | inactive |
| side-VI (GeneID 4379854) | DRSC12828 | – | – | – | 6911 | 4.16e5 | inactive |
| side-VI (GeneID 4379854) | DRSC12830 | – | – | – | 5367 | 4.48e5 | inactive |
| side-VI (GeneID 4379854) | DRSC14920 | – | – | – | 7332 | 3.93e5 | inactive |
| side-VI (GeneID 4379854) | DRSC15624 | – | – | – | 5963 | 3.18e5 | inactive |
| side-VI (GeneID 4379854) | DRSC23088 | – | – | – | 4599 | 3.29e5 | inactive |
| bw (GeneID 37724) | DRSC04005 | – | – | – | 4316 | 3.52e5 | inactive |
| bw (GeneID 37724) | DRSC04677 | – | – | – | 1.87e5 | 2.68e5 | inactive |
| NimC3 (GeneID 48772) | DRSC03556 | – | – | – | 6647 | 2.93e5 | inactive |
| NimC3 (GeneID 48772) | DRSC22528 | – | – | – | 4803 | 5.82e5 | inactive |
| CG31141 (GeneID 318605) | DRSC13646 | – | – | – | 5476 | 3.53e5 | inactive |
| SuUR (GeneID 45739) | DRSC11292 | – | – | – | 5311 | 4.03e5 | inactive |
| CG34433 (GeneID 5740702) | DRSC15077 | – | – | – | 7199 | 4.34e5 | inactive |
| mRpS6 (GeneID 38535) | DRSC08470 | – | – | – | 5299 | 4.56e5 | inactive |
| CheB93a (GeneID 42540) | DRSC15044 | – | – | – | 7275 | 3.23e5 | inactive |
| dj-1beta (GeneID 43652) | DRSC14599 | – | – | – | 5927 | 3.77e5 | inactive |
| CG42506 (retired record) + CG43759 | DRSC19464 | – | – | – | 8071 | 4.87e5 | inactive |
| CG42506 (retired record) + CG43759 | DRSC19543 | – | – | – | 5987 | 2.82e5 | inactive |
| prel (GeneID 35969) | DRSC07271 | – | – | – | 7454 | 4.05e5 | inactive |
| CG2004 (GeneID 31809) | DRSC18200 | – | – | – | 5247 | 3.34e5 | inactive |
| CG4945 (GeneID 36850) | DRSC06904 | – | – | – | 8930 | 3.18e5 | inactive |
| CG1971 (GeneID 43755) | DRSC15406 | – | – | – | 7804 | 4.45e5 | inactive |
| Fatp3 (GeneID 37887) | DRSC04366 | – | – | – | 5723 | 3.40e5 | inactive |
| VhaM9.7-b (GeneID 40389) | DRSC11841 | – | – | – | 7319 | 4.04e5 | inactive |
| mRpS7 (GeneID 34412) | DRSC02814 | – | – | – | 7123 | 1.63e6 | inactive |
| CG11961 (GeneID 37221) | DRSC06099 | 3 | – | – | 8179 | 3.37e5 | inactive |
| Abcd3 (GeneID 32992) | DRSC19488 | – | – | – | 7266 | 5.60e5 | inactive |
| Lrrk (GeneID 42447) | DRSC15816 | – | reporter ratio raised past the hit cutoff | – | 2899 | 86153 | inactive |
| Lrrk (GeneID 42447) | DRSC21971 | – | – | – | 8790 | 7.27e5 | inactive |
| MESR3 (GeneID 35116) | DRSC02463 | – | – | – | 6670 | 4.37e5 | inactive |
| E(spl)m4-BFM (GeneID 43157) | DRSC16992 | – | – | – | 7410 | 3.27e5 | inactive |
| Whamy (GeneID 41198) | DRSC14574 | – | – | – | 6392 | 3.68e5 | inactive |
| scw (GeneID 46000) | DRSC01711 | – | – | – | 4244 | 2.90e5 | inactive |
| scw (GeneID 46000) | DRSC21252 | – | – | – | 6442 | 6.41e5 | inactive |
| CG10576 (GeneID 38645) | DRSC09745 | – | – | – | 8538 | 5.27e5 | inactive |
| rhi (GeneID 44879) | DRSC05996 | – | – | – | 6084 | 2.60e5 | inactive |
| Rrp42 (GeneID 36766) | DRSC07161 | – | – | – | 7215 | 2.99e5 | inactive |
| CG8157 (GeneID 36700) | DRSC07085 | – | – | – | 7329 | 5.01e5 | inactive |
| CG8157 (GeneID 36700) | DRSC21595 | – | – | – | 9951 | 6.24e5 | inactive |
| CG31104 (GeneID 43054) | DRSC14658 | – | – | – | 6618 | 2.74e5 | inactive |
| CG9626 (GeneID 40979) | DRSC16525 | – | – | – | 8046 | 4.86e5 | inactive |
| Hsp68 (GeneID 42852) | DRSC16712 | – | – | – | 7166 | 4.17e5 | inactive |
| Gadd45 (GeneID 35646) | DRSC06033 | – | – | – | 5851 | 2.51e5 | inactive |
| att-ORFB + DPCoAC | DRSC15556 | – | – | – | 9515 | 5.54e5 | inactive |
| Flo2 (GeneID 32425) | DRSC19062 | – | – | – | 4550 | 4.04e5 | inactive |
| Flo2 (GeneID 32425) | DRSC20244 | – | – | – | 5232 | 3.65e5 | inactive |
| CG8476 (GeneID 41624) | DRSC16426 | – | – | – | 7290 | 3.68e5 | inactive |
| sloth2 + sloth1 | DRSC17922 | – | – | – | 5467 | 3.08e5 | inactive |
| sloth2 + sloth1 | DRSC17923 | – | – | – | 5342 | 3.52e5 | inactive |
| SF2 (GeneID 53443) | DRSC16845 | – | – | – | 6666 | 3.36e5 | inactive |
| Obp83b (GeneID 40738) | DRSC12360 | – | – | – | 8363 | 5.53e5 | inactive |
| Dnaaf3 (GeneID 37125) | DRSC06684 | – | – | – | 4595 | 2.21e5 | inactive |
| CG6066 (GeneID 43267) | DRSC15959 | – | – | – | 6006 | 4.42e5 | inactive |
| CG6066 (GeneID 43267) | DRSC22228 | – | – | – | 7903 | 6.58e5 | inactive |
| MtnA (GeneID 41202) | DRSC21588 | – | reporter ratio lowered past the hit cutoff | – | 8977 | 6.26e5 | inactive |
| CG15152 (GeneID 35082) | DRSC02453 | – | – | – | 7262 | 3.94e5 | inactive |
| c-cup (GeneID 33360) | DRSC00458 | – | – | – | 9028 | 6.13e5 | inactive |
| Pi4KIIIalpha (GeneID 31247) | DRSC18655 | – | – | – | 4823 | 2.94e5 | inactive |
| CG13198 (GeneID 36245) | DRSC06323 | – | – | – | 5280 | 2.70e5 | inactive |
| CG30419 (GeneID 37879) | DRSC04208 | – | – | – | 4139 | 3.53e5 | inactive |
| CG30419 (GeneID 37879) | DRSC04209 | – | – | – | 3975 | 3.06e5 | inactive |
| CG30419 (GeneID 37879) | DRSC22519 | – | – | – | 4503 | 6.09e5 | inactive |
| CG33502 + CG32857 + CG32500 | DRSC20817 | – | – | – | 5560 | 4.75e5 | inactive |
| CG33502 + CG32857 + CG32500 | DRSC21038 | – | – | – | 6274 | 4.48e5 | inactive |
| CG2962 (GeneID 31952) | DRSC18247 | – | – | – | 7258 | 4.70e5 | inactive |
| CG30109 + CG30108 | DRSC05674 | – | – | – | 4731 | 3.66e5 | inactive |
| pot (GeneID 32154) | DRSC19850 | – | – | – | 8889 | 6.44e5 | inactive |
| Rab9D + Rab9Fa + Rab9E | DRSC19853 | – | – | – | 5983 | 4.83e5 | inactive |
| a10 (GeneID 39906) | DRSC11319 | – | – | – | 8443 | 4.02e5 | inactive |
| CHKov1 (GeneID 43067) | DRSC01566 | – | – | – | 4991 | 3.68e5 | inactive |
| CHKov1 (GeneID 43067) | DRSC01696 | – | – | – | 5348 | 2.99e5 | inactive |
| CHKov1 (GeneID 43067) | DRSC14258 | – | – | – | 7686 | 3.16e5 | inactive |
| CHKov1 (GeneID 43067) | DRSC20937 | – | – | – | 3984 | 3.09e5 | inactive |
| sca (GeneID 36411) | DRSC07677 | – | – | – | 5723 | 3.03e5 | inactive |
| CG8407 (GeneID 36303) | DRSC07167 | – | – | – | 6987 | 5.81e5 | inactive |
| CG13324 (GeneID 36434) | DRSC06361 | – | – | – | 6318 | 4.26e5 | inactive |
| Rich (GeneID 40456) | DRSC11607 | – | – | – | 7974 | 3.02e5 | inactive |
| dgt3 (GeneID 37377) | DRSC04349 | – | – | – | 10943 | 7.93e5 | inactive |
| CG4884 (GeneID 43357) | DRSC15671 | – | – | – | 7155 | 4.56e5 | inactive |
| CG34135 + Nasp | DRSC16397 | – | – | – | 6552 | 3.62e5 | inactive |
| SA2 (GeneID 38167) | DRSC08385 | – | – | – | 7924 | 5.05e5 | inactive |
| Ir62a (GeneID 3885628) | DRSC08250 | – | – | – | 7207 | 3.29e5 | inactive |
| Rgk2 (GeneID 37132) | DRSC06503 | – | – | – | 6858 | 3.08e5 | inactive |
| Rgk2 (GeneID 37132) | DRSC21651 | – | – | – | 8377 | 4.65e5 | inactive |
| CG7368 (GeneID 39301) | DRSC10826 | – | – | – | 3907 | 4.85e5 | inactive |
| CG7368 (GeneID 39301) | DRSC22821 | – | – | – | 3587 | 3.85e5 | inactive |
| CG5390 (GeneID 34383) | DRSC02855 | – | – | – | 7396 | 3.88e5 | inactive |
| Uev1A (GeneID 38613) | DRSC09763 | – | – | – | 8130 | 4.48e5 | inactive |
| CG15449 (GeneID 33079) | DRSC20521 | – | – | – | 5774 | 3.19e5 | inactive |
| CG11905 (GeneID 39895) | DRSC09863 | – | – | – | 8951 | 2.90e5 | inactive |
| onecut (GeneID 45816) | DRSC17175 | – | – | – | 6387 | 3.80e5 | inactive |
| rept (GeneID 40092) | DRSC11388 | – | – | – | 5664 | 4.13e5 | inactive |
| CG31111 (GeneID 318595) | DRSC14649 | – | – | – | 8839 | 3.59e5 | inactive |
| CR42548 (GeneID 8673959) | DRSC09514 | – | – | – | 7170 | 5.03e5 | inactive |
| mib1 (GeneID 39750) | DRSC10550 | – | – | – | 7795 | 3.51e5 | inactive |
| Act57B (GeneID 37368) | DRSC04042 | – | reporter ratio lowered past the hit cutoff | – | 9673 | 1.35e6 | inactive |
| CG31688 (GeneID 35314) | DRSC02682 | – | – | – | 7264 | 4.79e5 | inactive |
| Taf12 (GeneID 41406) | DRSC16879 | – | – | – | 7286 | 5.58e5 | inactive |
| Taf12 (GeneID 41406) | DRSC28181 | – | – | reporter ratio lowered past the hit cutoff | – | – | active |

9 entries from above in another layout:
Abcd3 (GeneID 32992) [DRSC19488] → stable assay Renilla, run 1 (luminescence) = 7266; stable assay firefly, run 1 (luminescence) = 5.60e5; call = inactive
Lrrk (GeneID 42447) [DRSC15816] → stable siRNA reporter change = reporter ratio raised past the hit cutoff; stable assay Renilla, run 1 (luminescence) = 2899; stable assay firefly, run 1 (luminescence) = 86153; call = inactive
Lrrk (GeneID 42447) [DRSC21971] → stable assay Renilla, run 1 (luminescence) = 8790; stable assay firefly, run 1 (luminescence) = 7.27e5; call = inactive
MESR3 (GeneID 35116) [DRSC02463] → stable assay Renilla, run 1 (luminescence) = 6670; stable assay firefly, run 1 (luminescence) = 4.37e5; call = inactive
E(spl)m4-BFM (GeneID 43157) [DRSC16992] → stable assay Renilla, run 1 (luminescence) = 7410; stable assay firefly, run 1 (luminescence) = 3.27e5; call = inactive
Whamy (GeneID 41198) [DRSC14574] → stable assay Renilla, run 1 (luminescence) = 6392; stable assay firefly, run 1 (luminescence) = 3.68e5; call = inactive
scw (GeneID 46000) [DRSC01711] → stable assay Renilla, run 1 (luminescence) = 4244; stable assay firefly, run 1 (luminescence) = 2.90e5; call = inactive
scw (GeneID 46000) [DRSC21252] → stable assay Renilla, run 1 (luminescence) = 6442; stable assay firefly, run 1 (luminescence) = 6.41e5; call = inactive
CG10576 (GeneID 38645) [DRSC09745] → stable assay Renilla, run 1 (luminescence) = 8538; stable assay firefly, run 1 (luminescence) = 5.27e5; call = inactive
